Results of single-concentration screens

Protein sequences, listed by entry. Tags and fused reporters are not part of them. Residues count along the entry.
UniProt Q8IDJ8, 1-583: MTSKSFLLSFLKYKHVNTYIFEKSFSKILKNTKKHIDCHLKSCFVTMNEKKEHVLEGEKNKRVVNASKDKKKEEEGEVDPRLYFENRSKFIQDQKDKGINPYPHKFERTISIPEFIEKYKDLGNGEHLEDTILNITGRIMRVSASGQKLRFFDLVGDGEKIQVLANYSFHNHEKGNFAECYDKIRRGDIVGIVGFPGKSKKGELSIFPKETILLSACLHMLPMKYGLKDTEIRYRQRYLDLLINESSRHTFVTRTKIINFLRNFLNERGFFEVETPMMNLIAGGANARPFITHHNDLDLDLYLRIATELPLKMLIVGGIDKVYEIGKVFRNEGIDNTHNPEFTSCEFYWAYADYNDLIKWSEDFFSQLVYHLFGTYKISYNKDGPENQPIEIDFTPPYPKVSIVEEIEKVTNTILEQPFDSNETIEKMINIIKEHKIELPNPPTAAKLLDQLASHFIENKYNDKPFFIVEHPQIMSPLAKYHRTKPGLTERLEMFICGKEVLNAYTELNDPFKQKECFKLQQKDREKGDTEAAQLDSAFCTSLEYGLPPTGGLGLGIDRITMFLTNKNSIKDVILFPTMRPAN
UniProt P9WFT3, whole entry: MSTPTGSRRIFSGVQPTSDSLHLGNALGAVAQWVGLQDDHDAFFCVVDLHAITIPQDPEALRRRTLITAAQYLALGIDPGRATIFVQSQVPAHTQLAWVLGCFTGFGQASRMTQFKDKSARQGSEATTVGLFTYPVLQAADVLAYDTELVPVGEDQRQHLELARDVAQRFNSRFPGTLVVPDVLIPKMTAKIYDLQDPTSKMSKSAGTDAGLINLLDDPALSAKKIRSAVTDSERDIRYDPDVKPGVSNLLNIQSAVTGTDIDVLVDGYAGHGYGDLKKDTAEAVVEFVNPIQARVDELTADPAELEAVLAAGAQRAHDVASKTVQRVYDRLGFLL
UniProt P9WPC5, whole entry: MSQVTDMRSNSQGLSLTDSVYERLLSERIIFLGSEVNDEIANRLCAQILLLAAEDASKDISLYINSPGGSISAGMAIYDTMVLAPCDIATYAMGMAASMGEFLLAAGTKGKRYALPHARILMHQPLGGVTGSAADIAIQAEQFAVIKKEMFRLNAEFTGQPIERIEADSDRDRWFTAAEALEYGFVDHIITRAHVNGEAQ
UniProt P9WPC3, whole entry partner: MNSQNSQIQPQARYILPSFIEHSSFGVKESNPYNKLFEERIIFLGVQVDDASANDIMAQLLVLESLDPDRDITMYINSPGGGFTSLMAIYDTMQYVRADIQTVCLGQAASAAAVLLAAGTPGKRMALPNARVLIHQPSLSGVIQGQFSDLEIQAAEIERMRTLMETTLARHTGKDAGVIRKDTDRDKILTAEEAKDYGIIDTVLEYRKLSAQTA
UniProt Q4DA54, 1-478: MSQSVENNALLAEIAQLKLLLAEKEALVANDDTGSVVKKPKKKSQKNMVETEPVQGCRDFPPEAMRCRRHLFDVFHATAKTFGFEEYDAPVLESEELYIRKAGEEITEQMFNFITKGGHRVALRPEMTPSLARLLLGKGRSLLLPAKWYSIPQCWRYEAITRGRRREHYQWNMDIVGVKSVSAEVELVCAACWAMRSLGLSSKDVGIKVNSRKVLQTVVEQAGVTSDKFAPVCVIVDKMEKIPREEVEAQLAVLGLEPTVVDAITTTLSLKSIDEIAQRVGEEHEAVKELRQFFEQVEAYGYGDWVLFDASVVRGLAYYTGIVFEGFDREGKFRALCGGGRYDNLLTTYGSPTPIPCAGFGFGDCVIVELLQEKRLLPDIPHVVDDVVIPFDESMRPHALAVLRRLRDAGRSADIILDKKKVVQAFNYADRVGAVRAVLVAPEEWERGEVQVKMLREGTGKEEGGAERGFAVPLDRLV

The values are deposited in ChEMBL (CHEMBL3988442, “University of Dundee, Small-Polar-MMV Screening Library” (2021)).

PfKRS1: 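Lysine-tRNA ligase, Plasmodium falciparum 3D7 (UniProt Q8IDJ8). Enzyme assay of the cytosolic lysyl-tRNA synthetase in 384-well plates, read by luminescence. Tested at 30 µM. Higher reads as stronger inhibition, judged from the few compounds that gave an IC50. About 69,000 compounds were tested under these conditions; 0.071% (about 49) showed 50% or more at least once.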
MtTrpRS: 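Tryptophan-tRNA ligase, Mycobacterium tuberculosis (UniProt P9WFT3). Enzyme assay of tryptophanyl-tRNA synthetase; the read-out is not stated. Tested at 10 µM. Direction is not recorded; retested compounds ran higher, which suggests that high means inhibition. Of about 65,000 compounds tested this way, about 64 (0.098%) reached 50% or more in at least one test.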
ClpP1P2: 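Protease assay of ClpP1P2, read by the AMC dye that it sets free. Target: ClpP1P2, Mycobacterium tuberculosis (UniProt P9WPC5 and UniProt P9WPC3). Concentration: 50 µM. Higher reads as stronger inhibition, judged from the few compounds that gave an IC50. Most other retested compounds had strongly negative values. Size under these conditions: about 69,000 compounds, about 10 of them at 50% or above in at least one test.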
TcHisRS: 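Histidine-tRNA ligase, Trypanosoma cruzi CL Brener (UniProt Q4DA54). Enzyme assay of histidyl-tRNA synthetase; the read-out is not stated. Compounds at 30 µM. The record gives no direction; compounds that gave an IC50 in retests scored well above the rest, so higher reads as stronger inhibition. Of about 69,000 compounds tested this way, about 31 (0.045%) reached 50% or more in at least one test.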

Values are the deposited “Percent Effect”, in %. The record does not define 0% and 100%; most values in the screen are far below 50% and negative numbers occur (in some assays of this library far below -100). The compounds are a random part of those screened.

O=C(c1cccc(N2CCCC2=O)c1)N1CCCC(n2cccn2)C1 (configuration not stated) read PfKRS1: 0.2878%; MtTrpRS: -0.2674%; ClpP1P2: -3.861%; TcHisRS: 4.399%.
CC1CCN(C(=O)CSCc2noc(C(C)C)n2)CC1 read PfKRS1: 3.36%; MtTrpRS: -8.843%; ClpP1P2: -0.5643%; TcHisRS: 7.937%.
O=C1[C@@H]2C[C@H](O)CCN2C(=O)CN1CCSc1ccccn1 read PfKRS1: 5.103%; MtTrpRS: 6.51%; ClpP1P2: 19.57%; TcHisRS: 12.06%.
CS(=O)(=O)NCC(=O)NC1CCc2nccn2C1 (configuration not stated) read PfKRS1: 5.295%; MtTrpRS: -1.954%; ClpP1P2: -3.35%; TcHisRS: 2.905%.
Cc1nnc(NC(=O)NCc2ccc(N3CCNC(=O)C3)cc2)s1 read PfKRS1: -1%; MtTrpRS: -3.876%; ClpP1P2: -3.723%; TcHisRS: 3.982%.
Cc1cccc(COC[C@@H]2CC[C@H]3[C@H](CCN3Cc3ccco3)O2)n1 read PfKRS1: -1.223%; MtTrpRS: 3.865%; ClpP1P2: 1.307%; TcHisRS: 4.959%.
Cc1nc2ccc(C(=O)N3C[C@@H](O)[C@H](N4CCN(C)CC4)C3)cc2[nH]1 read PfKRS1: 0.3917%; MtTrpRS: -1.333%; ClpP1P2: -0.5758%; TcHisRS: 3.731%.
Cc1cccc(C(C(=O)N2CC(c3ccncc3)C2)N(C)C)c1 (configuration not stated) read PfKRS1: -1.595%; MtTrpRS: 9.768%; ClpP1P2: -8.968%; TcHisRS: 1.63%.
COCC1CN(Cc2ccc3c(c2)OCO3)Cc2ncn(C)c21 (configuration not stated) read PfKRS1: 1.553%; MtTrpRS: 0.8482%; ClpP1P2: -10.23%; TcHisRS: 1%.
O=C(COc1ccc2c(c1)CCC2)NS(=O)(=O)c1cccnc1 read PfKRS1: 3.909%; MtTrpRS: -3.952%; ClpP1P2: -42.96%; TcHisRS: 5.882%.
CCn1nc(C)c2c1cnn2CC(=O)NC(C)c1cccc(OC)c1 (configuration not stated) read PfKRS1: 0.3586%; MtTrpRS: 0.288%; ClpP1P2: 5.838%; TcHisRS: 8.911%.
COc1ccc(CC(=O)N(C)c2cccnc2N(C)C)c(Cl)c1 read PfKRS1: 21.57%; MtTrpRS: 11.01%; ClpP1P2: -15.11%; TcHisRS: 15%.
CC(=O)N(Cc1ncc(C)o1)C1CCN(Cc2csc(C)n2)C1 (configuration not stated) read PfKRS1: -1.382%; MtTrpRS: 1.379%; ClpP1P2: -42.41%; TcHisRS: 8.455%.
CN1CC2(CCCN(Cc3nnc(-c4cccc(F)c4)o3)C2)OC1=O (configuration not stated) read PfKRS1: 8.016%; MtTrpRS: -1.201%; ClpP1P2: -10.02%; TcHisRS: 4.386%.
Cc1ccc2nc(C)cc(C(=O)N3C[C@H]4CCC[C@@]4(CO)C3)c2c1 read PfKRS1: 3.105%; MtTrpRS: -3.612%; ClpP1P2: -18.52%; TcHisRS: -2.941%.
CC(NCCCc1cnn(C)c1)c1ccc(Br)s1 (configuration not stated) read PfKRS1: 2.143%; MtTrpRS: -7.385%; ClpP1P2: 2.288%; TcHisRS: 0.8403%.
CC(C)c1nnc2n1CCN(CCS(=O)(=O)c1ccccc1)C2 read PfKRS1: 0.01406%; MtTrpRS: -5.84%; ClpP1P2: -18.29%; TcHisRS: 3.458%.
CCc1cnc(CNc2ccc(C(=O)N3CCCC(C)C3)cc2C)o1 (configuration not stated) read PfKRS1: 0.7767%; MtTrpRS: -1.039%; ClpP1P2: -10.19%; TcHisRS: 3.817%.

For reference, 2 entries once more:

compound	PfKRS1	MtTrpRS	ClpP1P2	TcHisRS
O=C(COc1ccc2c(c1)CCC2)NS(=O)(=O)c1cccnc1	3.909%	-3.952%	-42.96%	5.882%
O=C1[C@@H]2C[C@H](O)CCN2C(=O)CN1CCSc1ccccn1	5.103%	6.51%	19.57%	12.06%